Results: the supplement of paper PMC10849652
Some of the results follow.

Protein sequences, listed by entry. Tags and fused reporters are not part of them. Lines headed by an entry give the natural chain unless they say otherwise; changes in a name come on top.
UniProt Q9P253: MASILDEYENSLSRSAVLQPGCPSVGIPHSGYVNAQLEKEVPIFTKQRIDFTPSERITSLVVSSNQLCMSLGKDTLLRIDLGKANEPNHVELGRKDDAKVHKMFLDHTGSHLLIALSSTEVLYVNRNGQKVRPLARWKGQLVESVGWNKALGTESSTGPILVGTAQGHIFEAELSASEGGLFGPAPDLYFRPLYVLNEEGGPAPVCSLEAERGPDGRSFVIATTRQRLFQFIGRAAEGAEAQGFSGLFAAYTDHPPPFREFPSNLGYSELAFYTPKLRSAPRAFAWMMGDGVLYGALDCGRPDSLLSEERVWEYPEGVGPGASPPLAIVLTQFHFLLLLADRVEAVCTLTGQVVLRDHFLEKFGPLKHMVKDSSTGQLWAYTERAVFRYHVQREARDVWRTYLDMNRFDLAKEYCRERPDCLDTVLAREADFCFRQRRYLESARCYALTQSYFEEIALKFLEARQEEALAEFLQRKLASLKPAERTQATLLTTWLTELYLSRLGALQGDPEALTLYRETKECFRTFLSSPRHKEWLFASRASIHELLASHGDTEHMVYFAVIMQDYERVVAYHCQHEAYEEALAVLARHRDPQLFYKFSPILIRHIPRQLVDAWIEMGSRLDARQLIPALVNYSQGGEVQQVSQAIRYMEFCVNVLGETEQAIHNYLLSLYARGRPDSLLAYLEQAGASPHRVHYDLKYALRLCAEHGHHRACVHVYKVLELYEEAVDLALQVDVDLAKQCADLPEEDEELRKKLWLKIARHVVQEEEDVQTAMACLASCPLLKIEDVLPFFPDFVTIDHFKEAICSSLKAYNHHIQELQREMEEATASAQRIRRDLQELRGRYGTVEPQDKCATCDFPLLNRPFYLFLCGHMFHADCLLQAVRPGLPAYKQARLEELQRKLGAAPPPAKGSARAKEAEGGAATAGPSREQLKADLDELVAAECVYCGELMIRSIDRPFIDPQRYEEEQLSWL
UniProt Q9H1Z4: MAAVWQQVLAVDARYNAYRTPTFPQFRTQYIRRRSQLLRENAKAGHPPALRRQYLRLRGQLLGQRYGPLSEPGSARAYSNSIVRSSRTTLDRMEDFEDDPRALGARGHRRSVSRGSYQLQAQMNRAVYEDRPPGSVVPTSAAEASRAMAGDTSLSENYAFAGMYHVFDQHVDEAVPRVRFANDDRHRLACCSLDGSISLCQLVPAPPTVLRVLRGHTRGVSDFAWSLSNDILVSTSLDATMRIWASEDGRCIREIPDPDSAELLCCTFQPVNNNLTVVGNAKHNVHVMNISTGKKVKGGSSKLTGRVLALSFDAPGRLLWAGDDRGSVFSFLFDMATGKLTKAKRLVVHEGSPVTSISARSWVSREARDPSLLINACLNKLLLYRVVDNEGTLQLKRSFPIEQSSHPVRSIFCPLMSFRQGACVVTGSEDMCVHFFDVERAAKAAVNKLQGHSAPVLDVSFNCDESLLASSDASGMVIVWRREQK
UniProt Q9Y4E6, whole entry, looked up: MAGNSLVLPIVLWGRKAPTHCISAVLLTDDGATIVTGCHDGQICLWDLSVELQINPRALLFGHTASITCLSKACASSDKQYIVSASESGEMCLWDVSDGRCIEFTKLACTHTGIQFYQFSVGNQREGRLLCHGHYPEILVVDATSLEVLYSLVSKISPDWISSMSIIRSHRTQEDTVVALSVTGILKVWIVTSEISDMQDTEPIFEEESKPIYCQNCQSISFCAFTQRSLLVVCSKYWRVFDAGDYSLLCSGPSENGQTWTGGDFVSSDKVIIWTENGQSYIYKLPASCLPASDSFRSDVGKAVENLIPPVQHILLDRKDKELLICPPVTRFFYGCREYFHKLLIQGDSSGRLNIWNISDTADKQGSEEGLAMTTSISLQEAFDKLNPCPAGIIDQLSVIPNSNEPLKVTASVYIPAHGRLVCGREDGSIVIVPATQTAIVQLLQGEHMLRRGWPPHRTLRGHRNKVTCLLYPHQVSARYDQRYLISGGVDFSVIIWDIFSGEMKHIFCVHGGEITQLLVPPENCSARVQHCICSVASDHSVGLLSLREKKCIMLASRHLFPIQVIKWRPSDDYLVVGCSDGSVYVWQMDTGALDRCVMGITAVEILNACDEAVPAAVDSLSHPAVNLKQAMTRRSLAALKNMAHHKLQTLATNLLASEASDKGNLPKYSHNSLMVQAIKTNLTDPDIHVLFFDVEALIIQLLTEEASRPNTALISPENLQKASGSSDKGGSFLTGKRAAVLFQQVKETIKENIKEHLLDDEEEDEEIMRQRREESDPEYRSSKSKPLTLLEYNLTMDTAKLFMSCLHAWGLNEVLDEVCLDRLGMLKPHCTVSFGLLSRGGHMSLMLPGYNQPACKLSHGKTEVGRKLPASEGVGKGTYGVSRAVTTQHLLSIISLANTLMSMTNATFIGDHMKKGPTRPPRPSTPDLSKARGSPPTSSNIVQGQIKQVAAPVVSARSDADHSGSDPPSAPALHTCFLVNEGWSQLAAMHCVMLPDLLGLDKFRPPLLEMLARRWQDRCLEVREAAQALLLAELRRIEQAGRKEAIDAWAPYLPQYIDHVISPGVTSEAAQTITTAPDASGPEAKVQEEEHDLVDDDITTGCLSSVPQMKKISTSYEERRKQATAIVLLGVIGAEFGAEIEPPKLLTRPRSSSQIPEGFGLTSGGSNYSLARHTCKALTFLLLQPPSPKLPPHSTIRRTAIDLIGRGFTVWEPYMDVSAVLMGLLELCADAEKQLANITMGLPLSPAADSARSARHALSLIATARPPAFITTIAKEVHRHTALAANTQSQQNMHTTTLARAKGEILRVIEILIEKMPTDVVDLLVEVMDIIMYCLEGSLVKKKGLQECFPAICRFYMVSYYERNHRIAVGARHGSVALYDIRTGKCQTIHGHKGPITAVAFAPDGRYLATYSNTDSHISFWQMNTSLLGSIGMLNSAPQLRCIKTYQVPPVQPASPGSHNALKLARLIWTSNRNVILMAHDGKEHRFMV
UniProt Q9Y4P8: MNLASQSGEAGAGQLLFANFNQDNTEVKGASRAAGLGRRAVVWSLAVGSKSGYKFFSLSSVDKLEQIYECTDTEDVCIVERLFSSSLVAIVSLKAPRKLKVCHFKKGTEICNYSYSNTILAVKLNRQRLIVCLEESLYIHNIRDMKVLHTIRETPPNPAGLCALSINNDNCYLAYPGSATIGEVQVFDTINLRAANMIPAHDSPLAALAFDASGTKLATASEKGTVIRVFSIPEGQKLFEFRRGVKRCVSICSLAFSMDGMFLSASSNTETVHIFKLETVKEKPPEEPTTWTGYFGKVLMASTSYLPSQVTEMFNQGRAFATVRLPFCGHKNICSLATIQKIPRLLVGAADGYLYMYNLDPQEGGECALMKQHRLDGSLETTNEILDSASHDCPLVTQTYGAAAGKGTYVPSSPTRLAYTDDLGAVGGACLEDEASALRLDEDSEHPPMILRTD
UniProt P23025: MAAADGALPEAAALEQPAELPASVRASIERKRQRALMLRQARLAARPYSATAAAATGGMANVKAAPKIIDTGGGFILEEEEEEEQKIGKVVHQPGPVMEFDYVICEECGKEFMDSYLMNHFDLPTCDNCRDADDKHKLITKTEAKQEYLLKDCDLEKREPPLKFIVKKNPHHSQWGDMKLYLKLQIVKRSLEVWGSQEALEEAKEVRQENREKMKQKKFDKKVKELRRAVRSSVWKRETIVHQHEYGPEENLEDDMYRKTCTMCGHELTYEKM
UniProt Q9Y4E1, whole entry, looked up: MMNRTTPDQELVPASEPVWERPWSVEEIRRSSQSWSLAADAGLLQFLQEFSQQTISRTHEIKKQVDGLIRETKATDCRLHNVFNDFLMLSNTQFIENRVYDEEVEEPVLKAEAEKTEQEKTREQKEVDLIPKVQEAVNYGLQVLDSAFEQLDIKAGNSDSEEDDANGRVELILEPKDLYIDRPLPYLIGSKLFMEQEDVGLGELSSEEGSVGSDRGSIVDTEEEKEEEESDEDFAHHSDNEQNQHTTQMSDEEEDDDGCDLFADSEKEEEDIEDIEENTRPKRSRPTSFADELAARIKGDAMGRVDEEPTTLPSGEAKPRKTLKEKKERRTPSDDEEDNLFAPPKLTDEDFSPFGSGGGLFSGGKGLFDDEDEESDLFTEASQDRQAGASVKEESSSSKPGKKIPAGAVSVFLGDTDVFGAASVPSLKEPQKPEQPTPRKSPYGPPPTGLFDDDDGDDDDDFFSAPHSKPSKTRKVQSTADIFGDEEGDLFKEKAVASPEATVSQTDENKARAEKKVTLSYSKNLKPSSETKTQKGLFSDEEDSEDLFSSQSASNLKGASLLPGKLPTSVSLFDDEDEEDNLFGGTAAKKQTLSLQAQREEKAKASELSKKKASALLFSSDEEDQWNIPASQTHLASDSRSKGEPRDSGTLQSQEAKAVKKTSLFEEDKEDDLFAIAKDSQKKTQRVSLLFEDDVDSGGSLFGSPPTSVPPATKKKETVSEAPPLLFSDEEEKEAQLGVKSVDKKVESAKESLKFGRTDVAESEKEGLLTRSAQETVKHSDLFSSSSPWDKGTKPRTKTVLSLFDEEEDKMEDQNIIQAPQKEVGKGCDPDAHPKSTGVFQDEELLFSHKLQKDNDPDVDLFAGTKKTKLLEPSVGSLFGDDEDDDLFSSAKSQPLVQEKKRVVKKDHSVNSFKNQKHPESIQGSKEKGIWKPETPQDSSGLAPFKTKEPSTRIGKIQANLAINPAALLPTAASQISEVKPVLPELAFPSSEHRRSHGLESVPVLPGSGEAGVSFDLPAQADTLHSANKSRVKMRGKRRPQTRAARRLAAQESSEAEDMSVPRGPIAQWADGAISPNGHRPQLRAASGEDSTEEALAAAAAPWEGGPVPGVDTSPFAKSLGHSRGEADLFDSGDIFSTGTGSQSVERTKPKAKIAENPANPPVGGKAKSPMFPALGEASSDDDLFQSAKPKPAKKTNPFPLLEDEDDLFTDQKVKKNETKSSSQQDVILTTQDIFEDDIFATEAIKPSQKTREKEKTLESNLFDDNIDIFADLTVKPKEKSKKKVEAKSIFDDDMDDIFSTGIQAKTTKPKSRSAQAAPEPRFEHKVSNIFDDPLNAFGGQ
UniProt Q9P2S5: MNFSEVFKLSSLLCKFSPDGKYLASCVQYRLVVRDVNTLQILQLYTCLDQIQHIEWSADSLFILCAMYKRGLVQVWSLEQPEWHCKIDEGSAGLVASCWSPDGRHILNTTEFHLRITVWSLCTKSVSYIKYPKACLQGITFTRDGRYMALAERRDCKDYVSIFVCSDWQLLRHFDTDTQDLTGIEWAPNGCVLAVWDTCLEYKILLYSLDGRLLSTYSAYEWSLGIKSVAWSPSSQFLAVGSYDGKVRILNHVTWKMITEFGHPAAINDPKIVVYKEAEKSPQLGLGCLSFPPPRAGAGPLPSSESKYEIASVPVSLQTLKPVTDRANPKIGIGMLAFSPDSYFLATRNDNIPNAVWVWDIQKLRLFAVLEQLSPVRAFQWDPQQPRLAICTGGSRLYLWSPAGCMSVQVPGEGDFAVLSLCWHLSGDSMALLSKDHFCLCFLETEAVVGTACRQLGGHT
UniProt Q9Y2I8: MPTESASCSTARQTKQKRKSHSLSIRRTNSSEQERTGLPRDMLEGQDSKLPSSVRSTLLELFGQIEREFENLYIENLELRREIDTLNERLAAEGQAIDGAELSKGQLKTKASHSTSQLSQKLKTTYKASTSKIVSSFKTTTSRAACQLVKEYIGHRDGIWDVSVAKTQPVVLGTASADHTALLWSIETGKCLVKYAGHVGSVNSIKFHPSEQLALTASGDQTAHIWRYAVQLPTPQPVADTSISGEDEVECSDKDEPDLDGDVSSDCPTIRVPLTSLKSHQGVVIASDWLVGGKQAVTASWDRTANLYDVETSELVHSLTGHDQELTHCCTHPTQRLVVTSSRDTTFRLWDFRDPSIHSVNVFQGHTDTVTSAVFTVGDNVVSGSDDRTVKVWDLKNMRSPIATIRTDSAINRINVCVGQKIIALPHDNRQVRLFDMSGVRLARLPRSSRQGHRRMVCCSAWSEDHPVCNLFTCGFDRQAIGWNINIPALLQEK

Key:
Assay in all cases: log2 fold change, soluble protein after heating vs DMSO (PISA); higher = thermal stabilisation; K562 lysate, 10 uM; active = over 0.2 and 3.5 SD of the protein, either way, in both replicates (recomputed)
[1] = compound: C=CC(=O)N1CCC[C@@H](n2nc(-c3ccc(Oc4ccccc4)cc3)c3c(N)ncnc32)C1 [ibrutinib]
Method in brief: (§1)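 Dounce homogenisation of K562 pellets in PBS pH 7.4 with 1 mM MgCl2 produced a crude extract, used at 1 mg/mL protein. Exposure to 10 μM compound lasted 30 min, and aliquots were then heated for 3 min across 48°C-58°C, pooled and brought to 0.5% NP-40 at 4°C. The supernatant after 21,000xg for 90 min was quantified by TMTpro 16plex LC-MS/MS with channel sums equalised. Duplicate values are given as log-two fold change in thermal stability relative to solvent controls.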

[2] = compound: CC(=O)c1cnc2ccc(-c3cc(Cl)c(O)c(Cl)c3)nc2c1N[C@H]1CC[C@H](CN(C)C)CC1
Method in brief: as §1

[3] = compound: CC(C)(C)Cn1c(N)nc2ccc(-c3[nH]c(C(C)(C)C)nc3-c3ccc(F)cc3)nc21 [ralimetinib]
Method in brief: as §1

[4] = compound: CC(C)(O)CC(=O)NCCn1ccc2ncnc(Nc3ccc(Oc4cccc(C(F)(F)F)c4)c(Cl)c3)c21
Method in brief: as §1

[5] = compound: CC(C)C1=C2N=C(C=C(N2N=C1)NCC3=CC=CC=C3)NCCCCCCN
Method in brief: as §1

[6] = compound: CC1=C(C(CC(=O)N1)C2=CC=C(C=C2)C(F)(F)F)C(=O)NC3=C(C=C4C(=C3)C=NN4)F
Method in brief: as §1

[7] = compound: CC1=C(C2=C(C=C1)C(=O)C3=CC=CC=C3N2CCCN)C
Method in brief: as §1

[8] = compound: CC1=C(C=C(C=C1)NC(=O)C2=CC(=CC=C2)C(C)(C)C#N)NC3=CC4=C(C=C3)N=CN(C4=O)C
Method in brief: as §1

[9] = compound: CC1=C(C=C(C=C1)NC(=O)C2=CC(=CC=C2)N(C)C)NC(=O)C3=CC=C(C=C3)O
Method in brief: as §1

[10] = compound: CC1=CC=C(C=C1)SC2=C3C=C(SC3=CN=C2)C(=O)N
Method in brief: as §1

[11] = compound: CCCS(=O)(=O)Nc1ccc(F)c(C(=O)c2c[nH]c3ncc(-c4ccc(Cl)cc4)cc23)c1F [vemurafenib]
Method in brief: as §1

[12] = compound: CCCS(=O)(=O)Nc1ccc(F)c(C(=O)c2c[nH]c3ncc(Cl)cc23)c1F
Method in brief: as §1

[13] = compound: CCN(CCCOc1ccc2c(Nc3cc(CC(=O)Nc4cccc(F)c4)[nH]n3)ncnc2c1)CCOP(=O)(O)O [barasertib]
Method in brief: as §1

[14] = compound: CC[C@@H]1C(=O)N(C)c2cnc(Nc3ccc(C(=O)NC4CCN(C)CC4)cc3OC)nc2N1C1CCCC1
Method in brief: as §1

[15] = compound: CC[C@@H]1C(=O)N(C)c2cnc(Nc3ccc(C(=O)N[C@H]4CC[C@H](N5CCN(CC6CC6)CC5)CC4)cc3OC)nc2N1C(C)C [volasertib]
Method in brief: as §1

[16] = compound: CCn1c(C(=O)N(C2CC2)C2CC2)cc2c3c(ncn3C)c(Nc3cc(C)n(C)n3)nc21
Method in brief: as §1

[17] = compound: CCn1cc(-c2ccnc3[nH]c(-c4cccc(CN(C)C)c4)cc23)c(-c2ccc(NC(=O)N(C)C)cc2)n1
Method in brief: as §1

[18] = compound: CN1CCC(CNc2ccc3ncc(-c4cccc(OC(F)(F)F)c4)n3n2)CC1
Method in brief: as §1

[19] = compound: CN1CCN(CCOc2cc(OC3CCOCC3)c3c(Nc4c(Cl)ccc5c4OCO5)ncnc3c2)CC1 [saracatinib]
Method in brief: as §1

[20] = compound: CN1CCN(c2nc(C3=C(c4c[nH]c5ccccc45)C(=O)NC3=O)c3ccccc3n2)CC1 [sotrastaurin]
Method in brief: as §1

Measured: log2 fold change

VPS18 (UniProt Q9P253)
inactive: [1] -0.007 | [2] -0.026 | [3] 0.038 | [4] -0.065 | [5] -0.022 | [6] 0.004 | [7] -0.046 | [8] -0.004 | [9] -0.041 | [10] 0.009 | [11] 0.037 | [12] 0.014 | [13] 0 | [14] 0 | [15] -0.083 | [16] 0.046 | [17] -0.048 | [18] -0.04 | [19] -0.012 | [20] 0.02

WDR62 isoform 4 (UniProt O43379)
inactive: [1] -0.023 | [2] 0.027 | [3] 0.013 | [4] -0.051 | [5] -0.007 | [6] 0.033 | [7] -0.016 | [8] 0.023 | [9] -0.002 | [10] -0.029 | [11] 0.004 | [12] 0.065 | [13] 0.031 | [14] -0.063 | [15] 0 | [16] 0.003 | [17] -0.009 | [18] -0.044 | [19] 0.04 | [20] 0.031

WDR13 (UniProt Q9H1Z4)
inactive: [1] 0.031 | [2] 0.037 | [3] 0.092 | [4] -0.053 | [5] -0.031 | [6] 0.017 | [7] -0.031 | [8] 0.048 | [9] -0.004 | [10] -0.008 | [11] -0.001 | [12] 0.063 | [13] 0.012 | [14] -0.017 | [15] -0.014 | [16] 0.008 | [17] -0.012 | [18] 0.052 | [19] 0.033 | [20] -0.031

WDR7 (UniProt Q9Y4E6)
inactive: [1] 0.067 | [2] 0.04 | [3] 0.063 | [4] -0.075 | [5] -0.03 | [6] -0.005 | [7] -0.013 | [8] 0.037 | [9] -0.06 | [10] -0.013 | [11] -0.005 | [12] -0.035 | [13] -0.019 | [14] -0.041 | [15] -0.057 | [16] 0.029 | [17] -0.007 | [18] 0.047 | [19] -0.018 | [20] 0.01

WAC (UniProt Q9BTA9)
inactive: [1] -0.062 | [2] -0.008 | [3] -0.012 | [4] -0.054 | [5] -0.009 | [6] 0.046 | [7] 0.034 | [8] -0.016 | [9] 0.022 | [10] 0.004 | [11] 0.018 | [12] 0.051 | [13] 0.077 | [14] 0 | [15] -0.003 | [16] 0.051 | [17] 0.061 | [18] 0.024 | [19] 0.013 | [20] -0.002

WIPI2 (UniProt Q9Y4P8)
inactive: [1] 0.047 | [2] 0.019 | [3] 0.026 | [4] 0.018 | [5] 0.022 | [6] 0.042 | [7] -0.018 | [8] 0.006 | [9] -0.013 | [10] -0.003 | [11] -0.028 | [12] 0.012 | [13] -0.06 | [14] -0.073 | [15] -0.022 | [16] 0.002 | [17] -0.108 | [18] 0.09 | [19] 0.01 | [20] -0.002

XPA (UniProt P23025)
inactive: [1] 0.067 | [2] 0.142 | [3] 0.019 | [4] 0 | [5] -0.051 | [6] -0.018 | [7] -0.086 | [8] 0.132 | [9] -0.021 | [10] 0.064 | [11] -0.008 | [12] -0.057 | [13] 0.453 | [14] 0.118 | [15] 0.116 | [16] -0.151 | [17] 0.086 | [18] -0.095 | [19] 0.012 | [20] -0.07

WASHC2C (UniProt Q9Y4E1)
inactive: [1] 0.045 | [2] -0.044 | [3] 0.02 | [4] -0.048 | [5] -0.045 | [6] 0.041 | [7] -0.01 | [8] -0.009 | [9] 0.014 | [10] -0.036 | [11] 0.045 | [12] 0.015 | [13] -0.03 | [14] 0.029 | [15] 0.022 | [16] -0.053 | [17] -0.189 | [18] 0.105 | [19] 0.026 | [20] 0.043

WDR33 (UniProt Q9C0J8)
inactive: [1] 0.052 | [2] 0.033 | [3] 0.033 | [4] -0.04 | [5] 0.003 | [6] -0.064 | [7] -0.019 | [8] -0.006 | [9] -0.001 | [10] -0.012 | [11] 0.027 | [12] -0.01 | [13] 0.048 | [14] 0.042 | [15] 0.021 | [16] 0.018 | [17] -0.016 | [18] -0.016 | [19] 0.027 | [20] 0.02

VPS13A (UniProt Q96RL7)
inactive: [1] 0.011 | [2] -0.006 | [3] 0.015 | [4] 0.02 | [5] 0.017 | [6] 0.233 | [7] 0.02 | [8] -0.053 | [9] 0.071 | [10] -0.024 | [11] 0.001 | [12] 0.03 | [13] 0.084 | [14] 0.119 | [15] -0.045 | [16] -0.043 | [17] -0.001 | [18] -0.069 | [19] 0.041 | [20] 0.092

WDHD1 (UniProt O75717)
inactive: [1] 0.024 | [2] -0.002 | [3] 0.005 | [4] -0.01 | [5] -0.027 | [6] 0.007 | [7] -0.002 | [8] -0.002 | [9] 0.016 | [10] -0.005 | [11] -0.03 | [12] 0.022 | [13] -0.02 | [14] -0.011 | [15] -0.026 | [16] -0.001 | [17] 0.078 | [18] -0.066 | [19] 0.024 | [20] 0.003

WRAP73 (UniProt Q9P2S5)
inactive: [1] 0.048 | [2] 0.009 | [3] -0.002 | [4] 0.022 | [5] -0.065 | [6] -0.009 | [7] 0.141 | [8] 0.053 | [9] 0.017 | [10] -0.038 | [11] 0.085 | [12] 0.035 | [13] -0.071 | [14] 0.035 | [15] 0.011 | [16] -0.068 | [17] -0.173 | [18] 0.038 | [19] 0 | [20] 0.068

VPS13D (UniProt Q5THJ4)
inactive: [1] -0.059 | [2] -0.001 | [3] 0.029 | [4] -0.197 | [5] -0.016 | [6] 0.038 | [7] -0.077 | [8] 0.072 | [9] -0.026 | [10] 0.048 | [11] -0.017 | [12] -0.077 | [13] 0.107 | [14] -0.035 | [15] -0.012 | [16] -0.082 | [17] 0.036 | [18] -0.1 | [19] 0.104 | [20] 0.038

WDR12 (UniProt Q9GZL7)
inactive: [1] 0 | [2] 0.004 | [3] 0.048 | [4] 0.014 | [5] -0.005 | [6] -0.023 | [7] 0.011 | [8] -0.034 | [9] 0.005 | [10] -0.009 | [11] -0.02 | [12] 0.001 | [13] -0.021 | [14] 0.005 | [15] 0.033 | [16] -0.018 | [17] -0.052 | [18] 0.047 | [19] -0.009 | [20] 0.009

2 neighbouring entries from above, for reference:
VPS18 (UniProt Q9P253)
inactive: [1] -0.007 | [2] -0.026 | [3] 0.038 | [4] -0.065 | [5] -0.022 | [6] 0.004 | [7] -0.046 | [8] -0.004 | [9] -0.041 | [10] 0.009 | [11] 0.037 | [12] 0.014 | [13] 0 | [14] 0 | [15] -0.083 | [16] 0.046 | [17] -0.048 | [18] -0.04 | [19] -0.012 | [20] 0.02

WDR62 isoform 4 (UniProt O43379)
inactive: [1] -0.023 | [2] 0.027 | [3] 0.013 | [4] -0.051 | [5] -0.007 | [6] 0.033 | [7] -0.016 | [8] 0.023 | [9] -0.002 | [10] -0.029 | [11] 0.004 | [12] 0.065 | [13] 0.031 | [14] -0.063 | [15] 0 | [16] 0.003 | [17] -0.009 | [18] -0.044 | [19] 0.04 | [20] 0.031

(listing goes on)

WDR70 (UniProt Q9NW82)
inactive: [1] 0.031 | [2] 0.025 | [3] 0.008 | [4] 0.09 | [5] -0.057 | [6] -0.034 | [7] 0.01 | [8] -0.032 | [9] -0.021 | [10] -0.01 | [11] -0.004 | [12] 0.042 | [13] -0.018 | [14] 0.016 | [15] 0.012 | [16] 0.053 | [17] -0.022 | [18] -0.006 | [19] -0.024 | [20] 0.001

WDR37 isoform 2 (UniProt Q9Y2I8)
inactive: [1] 0.002 | [2] -0.033 | [3] 0.001 | [4] -0.037 | [5] 0.022 | [6] 0.01 | [7] -0.042 | [8] 0.03 | [9] -0.001 | [10] -0.141 | [11] -0.02 | [12] 0.026 | [13] 0.028 | [14] -0.025 | [15] -0.04 | [16] -0.021 | [17] -0.019 | [18] -0.072 | [19] -0.026 | [20] 0.014
